± gives the standard deviation of the averaged measurements. Some of the results follow.
Compound: Nc1nc2c(ncn2[C@@H]2O[C@H](COP(=O)(O)OP(=O)(O)OP(=O)(O)O)[C@@H](O)[C@H]2O)c(=O)[nH]1 [guanosine triphosphate]
Test: NP40-soluble protein abundance relative to vehicle (solubility fold change) (ratio); higher = more soluble protein in presence of GTP
Experimental: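 Solubility proteome profiling in Jurkat crude lysate. Lysate was treated with Mg-GTP (0.1-10 mM) for 10 min at room temperature and 3 min at 37 °C, then solubilised with 0.8% NP40 and benzonase, followed by ultracentrifugation. Proteins were quantified by TMT10 LC-MS/MS; the value is the NP40-soluble abundance relative to the NP40-processed vehicle, from 3 independent experiments.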

Amino acid sequences for entries named in this document (tags omitted). A change or cut given only in a name is not applied to a line headed by its entry.
UniProt P52948: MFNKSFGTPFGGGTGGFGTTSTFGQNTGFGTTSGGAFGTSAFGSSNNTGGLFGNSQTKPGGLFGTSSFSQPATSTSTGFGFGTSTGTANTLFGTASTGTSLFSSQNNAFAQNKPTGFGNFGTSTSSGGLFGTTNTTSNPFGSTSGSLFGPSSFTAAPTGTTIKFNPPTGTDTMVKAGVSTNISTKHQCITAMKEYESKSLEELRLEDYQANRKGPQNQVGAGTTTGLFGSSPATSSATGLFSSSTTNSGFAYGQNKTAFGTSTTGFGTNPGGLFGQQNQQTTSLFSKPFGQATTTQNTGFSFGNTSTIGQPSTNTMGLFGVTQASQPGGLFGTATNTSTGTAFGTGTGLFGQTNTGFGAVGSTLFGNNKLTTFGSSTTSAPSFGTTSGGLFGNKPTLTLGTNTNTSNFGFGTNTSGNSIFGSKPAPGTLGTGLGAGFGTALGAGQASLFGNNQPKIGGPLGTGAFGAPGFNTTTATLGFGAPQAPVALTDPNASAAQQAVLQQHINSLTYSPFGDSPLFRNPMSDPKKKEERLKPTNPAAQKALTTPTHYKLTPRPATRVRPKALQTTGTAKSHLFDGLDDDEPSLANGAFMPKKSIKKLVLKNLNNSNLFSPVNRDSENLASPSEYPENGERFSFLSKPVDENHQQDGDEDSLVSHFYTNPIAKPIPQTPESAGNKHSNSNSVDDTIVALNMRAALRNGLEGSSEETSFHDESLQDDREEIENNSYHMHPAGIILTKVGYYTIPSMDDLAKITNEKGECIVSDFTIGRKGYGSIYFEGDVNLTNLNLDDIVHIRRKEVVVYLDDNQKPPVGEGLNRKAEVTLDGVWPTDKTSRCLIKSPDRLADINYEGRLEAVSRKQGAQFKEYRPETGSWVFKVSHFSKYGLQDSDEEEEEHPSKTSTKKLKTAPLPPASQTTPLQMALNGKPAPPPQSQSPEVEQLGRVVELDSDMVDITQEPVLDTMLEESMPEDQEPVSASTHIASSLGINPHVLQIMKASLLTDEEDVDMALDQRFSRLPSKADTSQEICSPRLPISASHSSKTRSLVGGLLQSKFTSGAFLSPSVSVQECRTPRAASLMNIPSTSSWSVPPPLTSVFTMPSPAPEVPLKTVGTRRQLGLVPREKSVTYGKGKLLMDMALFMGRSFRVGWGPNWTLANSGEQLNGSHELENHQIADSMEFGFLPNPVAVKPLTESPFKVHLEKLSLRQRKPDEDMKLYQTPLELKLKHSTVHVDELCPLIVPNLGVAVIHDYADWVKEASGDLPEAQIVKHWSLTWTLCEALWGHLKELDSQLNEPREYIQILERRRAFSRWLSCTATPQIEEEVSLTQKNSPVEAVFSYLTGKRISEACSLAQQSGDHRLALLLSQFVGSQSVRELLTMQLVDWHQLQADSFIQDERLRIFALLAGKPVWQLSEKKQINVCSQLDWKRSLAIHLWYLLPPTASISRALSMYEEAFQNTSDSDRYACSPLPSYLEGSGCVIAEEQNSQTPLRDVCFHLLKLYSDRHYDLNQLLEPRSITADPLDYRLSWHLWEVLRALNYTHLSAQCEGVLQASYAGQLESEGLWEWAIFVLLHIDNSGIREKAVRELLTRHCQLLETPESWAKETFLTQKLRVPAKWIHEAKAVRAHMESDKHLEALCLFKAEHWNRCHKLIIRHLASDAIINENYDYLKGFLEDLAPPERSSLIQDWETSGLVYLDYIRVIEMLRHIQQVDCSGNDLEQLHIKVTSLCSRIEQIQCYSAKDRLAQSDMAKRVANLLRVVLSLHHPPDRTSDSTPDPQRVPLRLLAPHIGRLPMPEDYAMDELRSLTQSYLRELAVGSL
UniProt P62995: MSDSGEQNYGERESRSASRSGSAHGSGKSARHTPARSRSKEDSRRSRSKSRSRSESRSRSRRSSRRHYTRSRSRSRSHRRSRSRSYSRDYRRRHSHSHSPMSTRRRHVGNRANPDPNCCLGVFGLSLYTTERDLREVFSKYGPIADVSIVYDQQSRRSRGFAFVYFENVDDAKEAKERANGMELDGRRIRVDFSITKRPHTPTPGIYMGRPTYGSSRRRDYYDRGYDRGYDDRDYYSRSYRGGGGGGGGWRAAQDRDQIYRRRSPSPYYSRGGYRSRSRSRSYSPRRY
UniProt P51946: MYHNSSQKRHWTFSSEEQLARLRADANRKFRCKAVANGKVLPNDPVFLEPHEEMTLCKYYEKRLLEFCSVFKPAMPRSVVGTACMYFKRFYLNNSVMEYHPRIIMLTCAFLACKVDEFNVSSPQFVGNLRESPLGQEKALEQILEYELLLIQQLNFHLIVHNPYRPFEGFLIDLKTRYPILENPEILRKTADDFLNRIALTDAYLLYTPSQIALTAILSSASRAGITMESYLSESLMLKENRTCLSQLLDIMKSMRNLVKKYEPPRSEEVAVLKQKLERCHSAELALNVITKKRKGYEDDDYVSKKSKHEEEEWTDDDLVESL
UniProt P56385: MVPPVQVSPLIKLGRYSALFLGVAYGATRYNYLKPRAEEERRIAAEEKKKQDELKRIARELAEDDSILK
UniProt P52630: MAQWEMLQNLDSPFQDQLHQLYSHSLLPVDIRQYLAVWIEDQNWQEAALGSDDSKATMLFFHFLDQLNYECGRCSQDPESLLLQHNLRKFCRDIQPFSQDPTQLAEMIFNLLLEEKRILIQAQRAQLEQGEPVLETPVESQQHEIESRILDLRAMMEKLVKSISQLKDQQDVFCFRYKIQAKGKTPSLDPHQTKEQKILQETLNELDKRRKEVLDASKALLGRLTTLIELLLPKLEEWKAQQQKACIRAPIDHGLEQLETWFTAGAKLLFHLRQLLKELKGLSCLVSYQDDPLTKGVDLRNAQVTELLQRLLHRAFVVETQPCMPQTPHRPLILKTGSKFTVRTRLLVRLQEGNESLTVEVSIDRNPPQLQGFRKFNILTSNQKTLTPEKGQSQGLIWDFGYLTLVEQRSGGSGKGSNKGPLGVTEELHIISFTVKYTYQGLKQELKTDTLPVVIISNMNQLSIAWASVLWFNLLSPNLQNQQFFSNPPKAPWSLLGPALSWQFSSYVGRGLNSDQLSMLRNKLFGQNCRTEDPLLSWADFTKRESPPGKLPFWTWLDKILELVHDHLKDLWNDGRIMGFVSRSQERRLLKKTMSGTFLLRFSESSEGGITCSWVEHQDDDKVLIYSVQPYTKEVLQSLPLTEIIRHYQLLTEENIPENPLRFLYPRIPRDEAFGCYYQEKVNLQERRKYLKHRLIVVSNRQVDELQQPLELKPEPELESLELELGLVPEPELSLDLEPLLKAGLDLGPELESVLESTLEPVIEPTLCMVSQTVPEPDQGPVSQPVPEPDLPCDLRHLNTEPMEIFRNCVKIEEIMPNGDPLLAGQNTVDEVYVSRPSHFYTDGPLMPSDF

Target | NP40-soluble protein abundance (concentration: 0.1mM) | NP40-soluble protein abundance (concentration: 0.5mM) | NP40-soluble protein abundance (concentration: 1mM) | NP40-soluble protein abundance (concentration: 2mM) | NP40-soluble protein abundance (concentration: 4mM) | NP40-soluble protein abundance (concentration: 6mM) | NP40-soluble protein abundance (concentration: 8mM) | NP40-soluble protein abundance (concentration: 10mM)
UniProt P52948 and related entries | 1.01 ± 0.035 | 1.03 ± 0.035 | 1.07 ± 0.033 | 1.1 ± 0.039 | 1.2 ± 0.02 | 1.26 ± 0.033 | 1.35 ± 0.03 | 1.438 ± 0.011
UniProt P62995 and related entries | 1.08 ± 0.077 | 1.36 ± 0.24 | 1.64 ± 0.54 | 1.73 ± 0.47 | 1.61 ± 0.64 | 1.54 ± 0.58 | 1.54 ± 0.62 | 1.41 ± 0.64
CCNH (UniProt P51946) | 0.995 ± 0.068 | 1.03 ± 0.026 | 0.99 ± 0.034 | 0.964 ± 0.035 | 0.943 ± 0.035 | 0.982 ± 0.033 | 0.987 ± 0.099 | 0.967 ± 0.028
UniProt P56385 | 0.902 ± 0.051 | 0.987 ± 0.086 | 1.04 ± 0.059 | 1.01 ± 0.12 | 0.965 ± 0.05 | 0.994 ± 0.097 | 1.05 ± 0.078 | 1.07 ± 0.074
UniProt P52630 and related entries | 1.01 ± 0.15 | 0.979 ± 0.18 | 0.897 ± 0.1 | 0.91 ± 0.061 | 0.945 ± 0.068 | 0.915 ± 0.058 | 0.947 ± 0.086 | 0.898 ± 0.1

Source: the supplement of paper PMC6411743
